The values below come from patent publication US20040192652A1, “Pharmaceutical combinations and methods for the treatment of leukemia” (priority 2002, published 2004).

Counter-ions that a name gives are not always drawn.

What all share (assay): cells
One experiment concerns KBM-5 cells. To be noted: Homo sapiens, KBM5, read-out: effective dose of STI-571 which kills 50% of cells.
For a further experiment, the system named is KBM-7 cells. To be noted: Homo sapiens, KBM-7, read-out: effective dose of STI-571 which kills 50% of cells.
The test system of a further experiment is KBM5-STI^R1.0 cells. To be noted: Homo sapiens, read-out: effective dose of STI-571 which killed 50% of cells.
For another experiment, the system named is KBM7-STI^R1.0 cells. To be noted: Homo sapiens, read-out: effective dose of STI-571 which killed 50% of cells.

As to `Cc1ccc(NC(=O)c2ccc(CN3CCN(C)CC3)cc2)cc1Nc1nccc(-c2cccnc2)n1` [STI-571, imatinib mesylate], the IC50 in the experiment with KBM-5 cells stood at 0.6 µM; in the experiment with KBM-7 cells, 0.3 µM; with KBM5-STI^R1.0 cells it was 10 µM; in the experiment on KBM7-STI^R1.0 cells, 3 µM.
